# In PMC7044199:
# The chains behind the UniProt entries cited, without tags or fusion partners.
# UniProt P19474: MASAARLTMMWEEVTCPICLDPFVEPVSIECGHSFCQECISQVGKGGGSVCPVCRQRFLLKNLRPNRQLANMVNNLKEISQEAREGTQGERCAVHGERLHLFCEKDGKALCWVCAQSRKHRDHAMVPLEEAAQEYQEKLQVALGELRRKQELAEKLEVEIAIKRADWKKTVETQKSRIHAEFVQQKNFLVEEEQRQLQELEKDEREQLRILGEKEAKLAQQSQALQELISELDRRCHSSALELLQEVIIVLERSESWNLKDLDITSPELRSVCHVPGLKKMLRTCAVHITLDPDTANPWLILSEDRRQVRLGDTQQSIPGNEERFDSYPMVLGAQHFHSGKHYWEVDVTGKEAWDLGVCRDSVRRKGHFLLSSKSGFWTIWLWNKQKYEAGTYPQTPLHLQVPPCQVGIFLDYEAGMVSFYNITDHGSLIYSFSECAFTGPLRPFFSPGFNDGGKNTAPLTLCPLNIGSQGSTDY
# Results are given in words; binding and its absence hold for the method and conditions named. Binding seen in cells or lysates may run through a third protein. Here binding means that the protein was enriched with, or labelled near, the bait; the list need not be complete. Sequences can lack the tags named with a protein.
# Target: T1, FLAG-SET7/9 (UniProt Q8WTS6)
# T1 sequence: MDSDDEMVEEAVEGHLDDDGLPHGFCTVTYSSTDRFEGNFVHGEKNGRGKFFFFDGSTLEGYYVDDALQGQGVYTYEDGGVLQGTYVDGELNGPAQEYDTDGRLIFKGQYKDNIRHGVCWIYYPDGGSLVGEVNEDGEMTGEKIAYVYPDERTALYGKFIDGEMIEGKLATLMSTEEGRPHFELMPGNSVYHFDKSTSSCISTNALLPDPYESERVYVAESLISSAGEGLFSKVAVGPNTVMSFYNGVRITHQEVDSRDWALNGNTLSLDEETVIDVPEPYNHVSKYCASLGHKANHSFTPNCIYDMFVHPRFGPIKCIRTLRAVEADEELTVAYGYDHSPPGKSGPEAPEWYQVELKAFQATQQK
# Assay: affinity purification with mass spectrometry; extracts of MCF-7 cells stably expressing FLAG-SET7/9 on an anti-FLAG M2 affinity column, eluted with FLAG peptide (0.2 mg/ml), SDS-PAGE, silver staining, bands cut out for LC-MS/MS
substance,measurement,value
"Tripartite motif-containing protein 21 (TRIM21), endogenous (from UniProt P19474 1-475) (enzyme)",binding,binds
